Not every detail of the peptide structures is certain; ends, links or a residue may be inferred. Some compounds share one wording; it may come from a single statement. Residues, ends and D or L forms follow the SMILES beside them.
Biological target: T1, HIV integrase (Human immunodeficiency virus type 1 group M subtype B, UniProt P04585)
T1 construct: The HIV integrase used in these assays was expressed in E. coli; made in house; host or cells: E. coli
Type: biochemical
Details: tested at a concentration of 50 μM
Procedure: HIV integrase activity was assayed by site-specific cleavage and integration of a 28 base pair synthetic oligonucleotide substrate representing HIV-1 U5 essentially as described by Vink et al., Nucl. Acids Res. 21:1419-1425 (1993), which is incorporated herein by reference. The HIV integrase used in these assays was expressed in E. coli and purified to near homogeneity.
Briefly, 0.2 pmol 5'-^32 P-oligonucleotide substrate and 2 μM HIV integrase were incubated at 37° C. for 1 hr in 10 μl assay buffer (10 mM MOPS, pH 7.2, 50 mM NaCl, 3 mM MnCl2, 0.05 mM EDTA, 0.1 mM β-mercaptoethanol, 4% glycerol). Control integrase activity was determined in the absence of any peptide. The activity of a peptide to be tested was examined by adding the peptide to the appropriate concentration in a 2 μl volume. Reactions were stopped by addition of 10 μl formamide loading dye (95% formamide, 20 mM EDTA, 0.05% bromophenol blue, 0.05% xylene cyanol) and incubation at 80° C. for 3 min. A 5 μl aliquot of the sample was separated by electrophoresis on a 12% denaturing polyacrylamide gel. Migration was detected by autoradiography and integrase activity was quantified by densitometry. Inhibition of integrase activity by a peptide corresponded with the disappearance of the cleavage and integration products.

| SMILES | inhibition of HIV integrase activity (in words) |
| --- | --- |
| NCCCC[C@H](NC(=O)[C@H](CS)NC(=O)[C@@H](N)Cc1c[nH]cn1)C(=O)N[C@@H](Cc1ccccc1)C(=O)N[C@@H](Cc1c[nH]c2ccccc12)C(=O)NCC(N)=O [compound 9] (H-HCKFWG-NH2) | effectively inhibited HIV integrase activity |
| NCCCC[C@H](NC(=O)[C@H](CS)NC(=O)[C@@H](N)Cc1c[nH]cn1)C(=O)N[C@@H](Cc1ccccc1)C(=O)N[C@@H](Cc1c[nH]c2ccccc12)C(=O)N[C@@H](Cc1ccc(O)cc1)C(N)=O [compound 20] (H-HCKFWY-NH2) | effectively inhibited HIV integrase activity |
| NCCCC[C@H](NC(=O)[C@H](CS)NC(=O)[C@@H](N)Cc1c[nH]cn1)C(=O)N[C@@H](Cc1ccccc1)C(=O)N[C@@H](Cc1c[nH]c2ccccc12)C(=O)N[C@@H](Cc1c[nH]cn1)C(N)=O [compound 10] (H-HCKFWH-NH2) | effectively inhibited HIV integrase activity |
| CC(C)[C@H](NC(=O)[C@H](Cc1c[nH]c2ccccc12)NC(=O)[C@H](Cc1ccccc1)NC(=O)[C@H](CCCCN)NC(=O)[C@H](CS)NC(=O)[C@@H](N)Cc1c[nH]cn1)C(N)=O [compound 21] (H-HCKFWV-NH2) | effectively inhibited HIV integrase activity |
